This list was built around the results that the source calls inconclusive (neither active nor inactive); the mix of calls is not that of the screen. Potencies of inconclusive entries are doubtful fits and often do not repeat. Calls of active or inactive are those of the source. Rule for the calls: active = hit-call score of the fitted dose curve at least 0.9, where 1 is the maximum; inconclusive = response in the unintended direction; inactive = score below 0.9.
Assay: ATG_Hpa5_TRANS: Attagene TRANS-FACTORIAL HepG2 Assay for human GAL4-Hpa5 Hepatocyte Transcription Factor Basal Promoter (AID 2282975);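 for outcome: hits are increases in reporter mRNA over DMSO baseline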
Conditions: HepG2 Attagene GAL4-Hpa5 transcription reporter
Protocol: ATG_TRANS is a cell-based, multiplexed-readout assay that uses HepG2, a human liver cell line, with measurements taken at 24 hours after chemical dosing in a 24-well plate.ATG_Hpa5_TRANS is one of 30 assay component(s) measured or calculated from the ATG_TRANS assay. It is designed to make measurements of mRNA induction, a form of inducible reporter, as detected with fluorescence intensity signals by Reverse transcription polymerase chain reaction (RT-PCR) and Capillary electrophoresis technology.Data from the assay component ATG_Hpa5_TRANS was analyzed into 1 assay endpoint. This assay endpoint, ATG_Hpa5_TRANS, was analyzed in the positive analysis fitting direction relative to DMSO as the negative control and baseline of activity. Using a type of inducible reporter, measures of mRNA for gain-of-signal activity can be used to understand the background control at the transcription factor-level as they relate to the gene . Furthermore, this assay endpoint can be referred to as a secondary readout, because this assay has produced multiple assay endpoints where this one serves a background control function. To generalize the intended target to other relatable targets, this assay endpoint is annotated to the background measurement intended target family, where the subfamily is internal marker.
Human liver HepG2 cells are transiently transfected with multiple reporter transcription units (MRTUs) in 6-well plates using FuGene 6 reagent (Roche; 3 ml FuGene/1 mg DNA). The MRTU constructs are regulated by a cis-regulating element (promoter). […] A major difference between the CIS and TRANS system is that in CIS activities of endogenous TFs are measured, whereas the TRANS assay evaluates changes in activities of exogenous, chimeric NR-Gal4 proteins. […] At the end of 24 hour incubation, total RNA was isolated using TriZol reagent (Invitrogen). The isolated RNA is then reverse-transcribed using oligo(dT) primer and Mo-MLV reverse transcriptase (Invitrogen) with DNAse I (Ambion) treatment for 30 min. The one-tenth of the produced cDNA was amplified by PCR using Taq DNA polymerase (Invitrogen) and two reporter sequence-specific primers. The PCR products were fluorescently labeled by primer extension with 6-arboxyfluorescein (6-FAM) 5'-labeled reporter sequence-specific primer (2 min at 95 C, 20 s at 68 C and 10 min at 72 C) and these products were digested with 5U of HpaI (New England Biolabs) for 2h at 37 C. The fragments were purified using Qiaquick PCR columns (Qiagen), analyzed on an ABI 3130xL genetic analyzer (Applied Biosystems) with peak positions identified by using a set of X-rhodamine (ROX)-labeled MapMarker1000 molecular weight standards (BioVentures). The raw capillary electrophoresis data was processed using Attagraph software (Attagene).

| Compound | AC50 | outcome |
| --- | --- | --- |
| [2H]C1([2H])[n+]2ccccc2-c2cccc[n+]2C1([2H])[2H] | inconclusive: 50 µM |  |
| O=C(Nc1ccccc1)Nc1cnns1 | inconclusive: 50 µM |  |
| CON(C)C(=O)Nc1ccc(Cl)c(Cl)c1 | inconclusive: 50 µM |  |
| CC1(c2ccc(Oc3ccccc3)cc2)OC(=O)N(Nc2ccccc2)C1=O (stereo not given) | inconclusive: 3.12 µM |  |
| CCCN(CCC)c1c([N+](=O)[O-])cc(S(N)(=O)=O)cc1[N+](=O)[O-] |  | inactive |
| COC(=O)C(C)Oc1ccc(Oc2ccc(Cl)cc2Cl)cc1 (stereo not given) | inconclusive: 6.67 µM |  |
| CCN(CC)C(=O)C(C)Oc1cccc2ccccc12 (stereo not given) |  | inactive |
| C#CCN1C(=O)COc2cc(F)c(N3C(=O)C4=C(CCCC4)C3=O)cc21 |  | inactive |
| COP(=S)(OC)Oc1ccc([N+](=O)[O-])cc1 | inconclusive: 7.1 µM |  |
| O=C(O)CCCOc1ccc(Cl)cc1Cl |  | inactive |
| CNC(=O)ON=CC(C)(C)SC |  | inactive |
| CC(C)(C)C(=O)C(Oc1ccc(Cl)cc1)n1cncn1 (stereo not given) |  | inactive |
| CCCN(CCC)c1c([N+](=O)[O-])cc(C(F)(F)F)cc1[N+](=O)[O-] |  | inactive |
| CC(C)Oc1cc(-n2nc(C(C)(C)C)oc2=O)c(Cl)cc1Cl |  | inactive |
| CCOP(=S)(Oc1cnc(C(C)(C)C)nc1)OC(C)C (stereo not given) | inconclusive: 50 µM |  |
| CC[C@H](C)[C@H]1O[C@]2(C=C[C@@H]1C)C[C@@H]1C[C@@H](C/C=C(\C)[C@@H](O[C@H]3C[C@H](OC)[C@@H](O[C@H]4C[C@H](OC)[C@@H](NC)[C@H](C)O4)[C@H](C)O3)[C@@H](C)/C=C/C=C3\CO[C@@H]4[C@H](O)C(C)=C[C@@H](C(=O)O1)[C@]34O)O2 |  | inactive |
| O=S1OCC2C(CO1)C1(Cl)C(Cl)=C(Cl)C2(Cl)C1(Cl)Cl (stereo not given) | inconclusive: 2.04 µM |  |
| CC(C)N1C(=O)c2ccccc2NS1(=O)=O |  | inactive |
| COc1nc(C)nc(NC(=O)NS(=O)(=O)c2ccccc2CCC(F)(F)F)n1 | inconclusive: 88.8 µM |  |
| CS(=O)(=O)c1ccc(C(=O)C2C(=O)CCCC2=O)c([N+](=O)[O-])c1 |  | inactive |

| Compound | AC50 | outcome |
| --- | --- | --- |
| O=C(O)COc1nc(Cl)c(Cl)cc1Cl | inconclusive: 0.147 µM |  |
| COC(=O)c1ccccc1CS(=O)(=O)NC(=O)Nc1nc(OC)cc(OC)n1 | inconclusive: 0.0109 µM |  |
| CNC(=S)S | inconclusive: 50 µM |  |
| CCCCOC(=O)c1ccccc1C(=O)OCCCC | inconclusive: 50 µM |  |
| CCN(CC)C(=O)SCc1ccc(Cl)cc1 |  | inactive |
| C=CCC1=C(C)C(OC(=O)C2C(C=C(C)C)C2(C)C)CC1=O (stereo not given) | inconclusive: 50 µM |  |
| CSc1nc(NC(C)C)nc(NC(C)C)n1 |  | inactive |
| COC(=O)C=C(C)OP(=O)(OC)OC | inconclusive: 50 µM |  |
| CNC(=O)Oc1cccc2ccccc12 | inconclusive: 0.345 µM |  |
| CC1(C)CCC(=Cc2ccc(Cl)cc2)C1(O)Cn1cncn1 (stereo not given) | inconclusive: 0.0791 µM |  |
| Oc1ccccc1-c1ccccc1 | inconclusive: 0.223 µM |  |
| CCC(C)(CC)c1cc(NC(=O)c2c(OC)cccc2OC)on1 |  | inactive |
| CCSC(=O)N(CC)C1CCCCC1 | inconclusive: 9.92 µM |  |
| OCCOc1ccccc1 | inconclusive: 50 µM |  |
| CC(C)(C)c1ccc(CSc2cnn(C(C)(C)C)c(=O)c2Cl)cc1 | inconclusive: 12.3 µM |  |
| CC1(C)C(C=C(Cl)Cl)C1C(=O)OC(C#N)c1ccc(F)c(Oc2ccccc2)c1 (stereo not given) |  | inactive |
| COP(=S)(OC)Oc1nc(Cl)c(Cl)cc1Cl |  | inactive |
| CC[C@H](C)[C@H]1O[C@]2(C=C[C@@H]1C)C[C@@H]1C[C@@H](C/C=C(\C)[C@@H](O[C@H]3C[C@H](OC)[C@@H](O[C@H]4C[C@H](OC)[C@@H](O)[C@H](C)O4)[C@H](C)O3)[C@@H](C)/C=C/C=C3\CO[C@@H]4[C@H](O)C(C)=C[C@@H](C(=O)O1)[C@]34O)O2 (tested in a mixture with another compound) |  | inactive |
| CCC(C)(NC(=O)c1cc(Cl)c(C)c(Cl)c1)C(=O)CCl (stereo not given) |  | inactive |

Single values from the results shown:
Value of CCOP(=S)(Oc1cnc(C(C)(C)C)nc1)OC(C)C (stereo not given) under AC50: inconclusive: 50 µM
Value of CNC(=O)ON=CC(C)(C)SC under outcome: inactive
Value of Oc1ccccc1-c1ccccc1 under AC50: inconclusive: 0.223 µM

Source: PubChem BioAssay (EPA / NIEHS)
